Data on three molecules can be found in article PMC8342551.

Like-named read-outs stand apart in the source and are kept apart here. These are yes or no findings as the source states them, for the method shown. In cells and extracts the contact can be indirect. Here binding means that the protein was enriched with, or labelled near, the bait; the list need not be complete. For part of these data: No binding means not detected with the bait. Where a sequence is shown, tags or fusion partners need not be part of it.

What all share (test): affinity purification with mass spectrometry; Co-IPs cross-performed on lysates of spleen primary erythroid cells from recipients of FLAG-YPEL4 or YPEL4-HA transduced Ypel4-/- c-Kit+ cells (day 16); nano LC-MS with TMT quantification, tagged against control samples
Test [1] addresses T1, FLAG-YPEL4 (UniProt Q65Z93).
T1 sequence: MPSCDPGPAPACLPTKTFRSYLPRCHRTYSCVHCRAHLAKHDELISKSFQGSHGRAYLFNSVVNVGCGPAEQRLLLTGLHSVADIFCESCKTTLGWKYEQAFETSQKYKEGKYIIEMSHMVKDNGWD

Test [2] concerns the target T2, YPEL4-HA (UniProt Q65Z93).
T2 sequence: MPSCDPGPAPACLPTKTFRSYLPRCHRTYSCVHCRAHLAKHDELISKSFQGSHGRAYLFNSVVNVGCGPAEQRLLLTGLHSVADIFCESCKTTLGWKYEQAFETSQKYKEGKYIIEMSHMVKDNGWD

Test [3] concerns the target T1, FLAG-YPEL4. This is another data set of the same source.
In test [4] the target is T2, YPEL4-HA. This is another data set of the same source.

For the molecule alpha-tubulin, the binding entry with FLAG-YPEL4 [1] and with YPEL4-HA [2] was “binds” in each case.

Turning to beta-tubulin, the binding result with FLAG-YPEL4 [1] and in the test with YPEL4-HA [2] was “binds” each time.

B1: Band 3 protein (protein, UniProt P04919 1-929)
chain: MGDMRDHEEVLEIPDRDSEEELENIIGQIAYRDLTIPVTEMQDPEALPTEQTATDYVPSSTSTPHPSSGQVYVELQELMMDQRNQELQWVEAAHWIGLEENLREDGVWGRPHLSYLTFWSLLELQKVFSKGTFLLGLAETSLAGVANHLLDCFIYEDQIRPQDREELLRALLLKRSHAEDLGNLEGVKPAVLTRSGGASEPLLPHQPSLETQLYCGQAEGGSEGPSTSGTLKIPPDSETTLVLVGRANFLEKPVLGFVRLKEAVPLEDLVLPEPVGFLLVLLGPEAPHVDYTQLGRAAATLMTERVFRITASMAHNREELLRSLESFLDCSLVLPPTDAPSEKALLNLVPVQKELLRRRYLPSPAKPDPNLYNTLDLNGGKGGPGDEDDPLRRTGRIFGGLIRDIRRRYPYYLSDITDALSPQVLAAVIFIYFAALSPAVTFGGLLGEKTRNLMGVSELLISTAVQGILFALLGAQPLLVLGFSGPLLVFEEAFFSFCESNNLEYIVGRAWIGFWLILLVMLVVAFEGSFLVQYISRYTQEIFSFLISLIFIYETFSKLIKIFQDYPLQQTYAPVVMKPKPQGPVPNTALFSLVLMAGTFLLAMTLRKFKNSTYFPGKLRRVIGDFGVPISILIMVLVDSFIKGTYTQKLSVPDGLKVSNSSARGWVIHPLGLYRLFPTWMMFASVLPALLVFILIFLESQITTLIVSKPERKMIKGSGFHLDLLLVVGMGGVAALFGMPWLSATTVRSVTHANALTVMGKASGPGAAAQIQEVKEQRISGLLVSVLVGLSILMEPILSRIPLAVLFGIFLYMGVTSLSGIQLFDRILLLFKPPKYHPDVPFVKRVKTWRMHLFTGIQIICLAVLWVVKSTPASLALPFVLILTVPLRRLILPLIFRELELQCLDGDDAKVTFDEENGLDEYDEVPMPV
Take B1: the binding entry with FLAG-YPEL4 [3] and with YPEL4-HA [4] was “no binding” in each case.
